Measurements taken from the supplement of paper PMC7646827.
Structures can show the parent of a compound that is named as a salt. Many values rest on one well or one pass, so single values are uncertain.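 All cells are established human bladder cancer lines, one derived from a patient-derived xenograft. A luminescent ATP assay measured viability as percent inhibition relative to vehicle across seven dilutions. The paper rates scores above 59 very active, 30–59 active, 21–29 semi-active, 9–20 low active, below 9 inactive.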

What was measured:
Experiment in all cases: drug sensitivity score DSS3 (score 0-100); higher = more sensitive; extreme values may be limits of the assay
Conditions in all cases: culture: 3D, ultra-low attachment; treatment time: 5 days
[1] = tested on: TCCSUP
[2] = tested on: UM-UC-12
[3] = tested on: UM-UC-17
[4] = tested on: UM-UC-6
[5] = tested on: UM-UC-14
[6] = tested on: UM-UC-1
[7] = tested on: UM-UC-3
[8] = tested on: UM-UC-5
[9] = tested on: UM-UC-9
[10] = tested on: BC8149
[11] = tested on: UM-UC-18
[12] = tested on: J82
[13] = tested on: SCaBER
[14] = tested on: SW780
[15] = tested on: 5637
[16] = tested on: T-24
[17] = tested on: UM-UC-15

SMILES | drug sensitivity score DSS3 [1] | drug sensitivity score DSS3 [2] | drug sensitivity score DSS3 [3] | drug sensitivity score DSS3 [4] | drug sensitivity score DSS3 [5] | drug sensitivity score DSS3 [6] | drug sensitivity score DSS3 [7] | drug sensitivity score DSS3 [8] | drug sensitivity score DSS3 [9] | drug sensitivity score DSS3 [10] | drug sensitivity score DSS3 [11] | drug sensitivity score DSS3 [12] | drug sensitivity score DSS3 [13] | drug sensitivity score DSS3 [14] | drug sensitivity score DSS3 [15] | drug sensitivity score DSS3 [16] | drug sensitivity score DSS3 [17]
C[C@H]1COC2=C1C(=O)C(=O)c1c2ccc2c1CCCC2(C)C [Cryptotanshinone] (max dose 10000 nM) | 0 | 0 | 0 | 0 | 0 | 0 | 0.516 | 0.57 | 0.0277 | 0 | 0 | 0 | 0 | 0 | 0 | 0 | 
NC(=O)c1cc(F)cc2c1C(=O)N(C1CCN(C3CCC(F)(F)CC3)CC1)C2 [NMS-P118] (max dose 10000 nM) | 0 | 0 | 0 | 13 | 0 | 0 | 0 | 0 | 0 | 0 | 0 | 1.52 | 0.69 | 0 | 0 | 9.08 | 
Cn1cc(/C=C2\C(=O)Nc3cccnc32)c2ccccc21 (max dose 10000 nM) | 0 | 0 | 0 | 0 | 0 | 0 | 0 | 0 | 0 | 0 | 1.28 | 0 | 3.78e-05 | 0 | 0.979 | 0 | 
CCn1c(=O)c2c(nc(/C=C/c3ccc(OC)c(OC)c3)n2C)n(CC)c1=O [Istradefylline] (max dose 10000 nM) | 0 | 0 | 0 | 0 | 0 | 0 | 0 | 0 | 0 | 0 | 0 | 0 | 0 | 0 | 0 | 0 | 
CCOc1ccc(Cc2cc([C@@H]3O[C@H](CO)[C@@H](O)[C@H](O)[C@H]3O)ccc2Cl)cc1 [Dapagliflozin propanediol monohydrate] (max dose 10000 nM) | 0 | 0.00799 | 0 | 0.708 | 0 | 0.00352 | 0.0113 | 0 | 0 | 0 | 0.135 | 0 | 0 | 0 | 0 | 0 | 
NS(=O)(=O)NCCNc1nonc1C(=Nc1ccc(F)c(Br)c1)NO [IDO inhibitor 1] (max dose 10000 nM) | 0 | 0 | 0 | 0 | 0 | 0 | 0 | 0 | 0 | 0 | 0 | 0 | 0 | 0 | 0 | 0 | 
CC1(C)CCC(CN2CCN(c3ccc(C(=O)NS(=O)(=O)c4ccc(NCC5CCOCC5)c([N+](=O)[O-])c4)c(Oc4cnc5[nH]ccc5c4)c3)CC2)=C(c2ccc(Cl)cc2)C1 [Venetoclax (ABT-199, GDC-0199)] (max dose 10000 nM) | 0 | 0 | 0 | 0 | 0 | 48.3 | 0 | 0.958 | 0 | 0 | 0 | 0 | 0 | 0 | 0 | 0 | 
Cn1cnc2c(F)c(Nc3ccc(Br)cc3Cl)c(C(=O)NOCCO)cc21 [Selumetinib, Selumetinib (AZD6244)] (max dose 10000 nM) | 3.26 | 1.39 | 1.35 | 2.12 | 1.6 | 2 | 21.4 | 8.92 | 0.373 | 6.05 | 1.91 | 0.0675 | 12.1 | 0.77 | 4.32 | 8.77 | 
CCCOc1ccc(CCc2nc3cc(-c4c(C)noc4C)ccc3n2CCN2CCOCC2)cc1 [PF-CBP1 HCl] (max dose 10000 nM) | 0 | 0 | 0 | 0 | 0 | 0 | 0 | 0 | 0 | 0 | 0 | 0 | 0 | 0 | 0 | 0 | 
Cc1c(C(=O)Nc2ccc(N3C[C@@H](C)O[C@@H](C)C3)nc2)cccc1-c1ccc(OC(F)(F)F)cc1 [sonidegib] (max dose 10000 nM) | 2.72 |  | 0 | 0 | 1.67 | 0 | 0 | 0 | 0 | 1.38 | 4.98 |  | 0 | 0 | 3.21 | 1.6 | 0.297
Nc1ncnc2n[nH]c(Nc3ccc(F)cc3)c12 (max dose 10000 nM) | 0.029 | 0 | 0 | 0 | 0 | 0 | 0 | 0 | 0 | 0 | 0 | 0 | 0 | 0 | 0 | 0 | 
Cc1c(NC(=O)c2cc(C(N)=O)nc3cc(F)ccc23)c(C(F)(F)F)nn1Cc1ccc(C#N)cc1 [BAY-876] (max dose 10000 nM) | 0 | 3.42e-05 | 0 | 0.214 | 5.12 | 2.67 | 0.414 | 0.885 | 9.02 | 0 | 0 | 0 | 0 | 0.0125 | 0.217 | 0 | 
NC(=O)c1ccc2nc(-c3ccc(Oc4ccc(Cl)cc4)cc3)[nH]c2c1 [Chk2 Inhibitor II (BML-277)] (max dose 10000 nM) | 9.47 | 0 | 0.0128 | 0 | 0 | 0 | 0 | 0 | 0 | 0 | 0 | 0 | 0 | 0 | 0 | 0.000374 | 
